PubChem BioAssay AID1671195 | Yale University | 2021
The whole screen tested about 22,000 reagents; shown is an unselected part. Over the whole deposit, about 1,510 (6.9%) are marked active. 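Active includes knockdowns raising or lowering LDL uptake; positive z-scores mean more uptake, negative mean less.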 Reagent sequences are not shown.

- Screen: 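Genes whose knockdown alters LDL uptake in liver cancer cells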 (primary screen)
- System: human Huh7 hepatoma cells
- Knock-down reagent: siRNA pool against human genes, 18 nM
- Timing: about 2 to 2.5 days of knockdown, then 8 h LDL uptake
- Treatment: DiI-labelled LDL at 30 µg/ml for 8 h, in lipoprotein-deficient serum medium
- Measurement: 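Fluorescent LDL signal imaged in cells, scaled to the plate median, robust z-score for each replicate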
- Direction: robust z-score: higher = more LDL uptake after knockdown
- Rule for the call: 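Active when two or more replicates show a robust z-score above 2 or below -2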

LOC339539 showed robust z-score, replicate 1 = 1.13; robust z-score, replicate 2 = 1.09; robust z-score, replicate 3 = 1.11; inactive. CSPP1 (centrosome and spindle pole associated protein 1) scored robust z-score, replicate 1 = -1.2; robust z-score, replicate 2 = -1.17; robust z-score, replicate 3 = -1.05; inactive. Against MSANTD3 (Myb/SANT DNA binding domain containing 3), the entry reads robust z-score, replicate 1 = -0.174; robust z-score, replicate 2 = -0.383; robust z-score, replicate 3 = 0.63; inactive. With knock-down of SPATA25 (spermatogenesis associated 25), the screen gave robust z-score, replicate 1 = -1.59; robust z-score, replicate 2 = -1.33; robust z-score, replicate 3 = -1.52; inactive. Against CDAN1 (codanin 1), the values are robust z-score, replicate 1 = -0.787; robust z-score, replicate 2 = -0.572; robust z-score, replicate 3 = -0.594; inactive. After knock-down of LRAT (lecithin retinol acyltransferase), the screen gave robust z-score, replicate 1 = 1.57; robust z-score, replicate 2 = 2.79; robust z-score, replicate 3 = 2.15; active.

Knock-down of CRYBG1 (crystallin beta-gamma domain containing 1) resulted in: robust z-score, replicate 1 = -0.242; robust z-score, replicate 2 = -1.62; robust z-score, replicate 3 = -1.15; inactive. Silencing of ANKMY1 (ankyrin repeat and MYND domain containing 1) resulted in: robust z-score, replicate 1 = 0.748; robust z-score, replicate 2 = 0.383; robust z-score, replicate 3 = 0.374; inactive. Depletion of GPR180 (G protein-coupled receptor 180) resulted in: robust z-score, replicate 1 = 3.12; robust z-score, replicate 2 = 2.59; robust z-score, replicate 3 = 1.9; active. THNSL2 (threonine synthase like 2) showed robust z-score, replicate 1 = -0.345; robust z-score, replicate 2 = 0.922; robust z-score, replicate 3 = -0.444; inactive.

A few values from the list.
Result of THNSL2 (threonine synthase like 2) in “robust z-score, replicate 3”: -0.444
MSANTD3 (Myb/SANT DNA binding domain containing 3), robust z-score, replicate 3: 0.63
Result of CRYBG1 (crystallin beta-gamma domain containing 1) under “robust z-score, replicate 2”: -1.62
LRAT (lecithin retinol acyltransferase), robust z-score, replicate 1 = 1.57

The results go on:
Against EHD3 (EH domain containing 3), the values are robust z-score, replicate 1 = -1.11; robust z-score, replicate 2 = -1; robust z-score, replicate 3 = -0.776; inactive. After knock-down of DES (desmin), the record shows robust z-score, replicate 1 = -0.807; robust z-score, replicate 2 = -0.629; robust z-score, replicate 3 = 0.168; inactive. HGSNAT (heparan-alpha-glucosaminide N-acetyltransferase) gave robust z-score, replicate 1 = -0.00757; robust z-score, replicate 2 = -0.783; robust z-score, replicate 3 = 0.274; inactive. SOD2 (superoxide dismutase 2) showed robust z-score, replicate 1 = 0.643; robust z-score, replicate 2 = 0.204; robust z-score, replicate 3 = 0.251; inactive. TAF11 (TATA-box binding protein associated factor 11) gave robust z-score, replicate 1 = 0.065; robust z-score, replicate 2 = -0.196; robust z-score, replicate 3 = 0.0449; inactive. RAPGEF1 (Rap guanine nucleotide exchange factor 1) gave robust z-score, replicate 1 = -0.147; robust z-score, replicate 2 = -0.41; robust z-score, replicate 3 = 0.0231; inactive.

Silencing of LOC402011 (retired record) gave: robust z-score, replicate 1 = 0.513; robust z-score, replicate 2 = 0.373; robust z-score, replicate 3 = 0.875; inactive. For ATG16L2 (autophagy related 16 like 2), the entry reads robust z-score, replicate 1 = -0.584; robust z-score, replicate 2 = -0.34; robust z-score, replicate 3 = -0.694; inactive. GAMT (guanidinoacetate N-methyltransferase) gave robust z-score, replicate 1 = 1.64; robust z-score, replicate 2 = 0.687; robust z-score, replicate 3 = 1.28; inactive. Silencing of TXNRD3 (thioredoxin reductase 3) came out at: robust z-score, replicate 1 = 1.07; robust z-score, replicate 2 = 0.595; robust z-score, replicate 3 = 1.26; inactive. After knock-down of LOC390908 (retired record) the results were robust z-score, replicate 1 = -0.705; robust z-score, replicate 2 = -0.077; robust z-score, replicate 3 = -0.387; inactive. After knock-down of PTTG2 (pituitary tumor-transforming 2), the screen gave robust z-score, replicate 1 = -0.602; robust z-score, replicate 2 = -1.57; robust z-score, replicate 3 = -0.151; inactive.

Silencing of CYBB (cytochrome b-245 beta chain) resulted in: robust z-score, replicate 1 = -0.619; robust z-score, replicate 2 = 0.0756; robust z-score, replicate 3 = -1.04; inactive. For PRKAG3 (protein kinase AMP-activated non-catalytic subunit gamma 3), the values are robust z-score, replicate 1 = 0.271; robust z-score, replicate 2 = 0.343; robust z-score, replicate 3 = -0.172; inactive. Against TRMT13 (tRNA methyltransferase 13) the deposit lists robust z-score, replicate 1 = 0.872; robust z-score, replicate 2 = 0.417; robust z-score, replicate 3 = -0.016; inactive. OR1B1 (olfactory receptor family 1 subfamily B member 1) scored robust z-score, replicate 1 = 1.16; robust z-score, replicate 2 = 0.572; robust z-score, replicate 3 = 0.786; inactive. Silencing of SDK2 (sidekick cell adhesion molecule 2) came out at: robust z-score, replicate 1 = -1.79; robust z-score, replicate 2 = -1.6; robust z-score, replicate 3 = -3.25; inactive. POLR2DP1 (POLR2D pseudogene 1) scored robust z-score, replicate 1 = -0.904; robust z-score, replicate 2 = -1.26; robust z-score, replicate 3 = -1.54; inactive.

IL9 (interleukin 9) showed robust z-score, replicate 1 = -0.471; robust z-score, replicate 2 = -0.215; robust z-score, replicate 3 = -0.539; inactive. Against CD27 (CD27 molecule), the entry reads robust z-score, replicate 1 = 0.528; robust z-score, replicate 2 = 0.374; robust z-score, replicate 3 = 0.556; inactive.
